One substance from publication PMC4752301 can be followed below.

Chains of the proteins cited; added tags and fusions are not shown.
UniProt P02792: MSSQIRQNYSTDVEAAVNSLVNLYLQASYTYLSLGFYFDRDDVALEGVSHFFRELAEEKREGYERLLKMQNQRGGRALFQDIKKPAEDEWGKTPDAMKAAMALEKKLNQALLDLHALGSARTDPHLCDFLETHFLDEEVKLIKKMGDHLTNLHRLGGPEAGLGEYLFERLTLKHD

No constants are given. Whether binding was seen depends on the method and setting. In cells and extracts the contact can be indirect. Some entries that bind do so weakly or less than the wild type. Where a sequence is shown, tags or fusion partners need not be part of it.

This assay deals with T1, flag-Gadd45a (human) (UniProt P24522).
T1 sequence: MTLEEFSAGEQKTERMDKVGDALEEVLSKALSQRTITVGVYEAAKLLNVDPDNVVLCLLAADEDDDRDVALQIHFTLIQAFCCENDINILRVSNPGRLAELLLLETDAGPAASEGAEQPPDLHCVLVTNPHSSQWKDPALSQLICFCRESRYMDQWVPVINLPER
Description: co-IP; HEK 293T cells co-transfected with myc-FTL and flag-Gadd45a; lysis in 25 mM Tris-HCl pH 7.5, 150 mM NaCl, 0.5% Nonidet P-40; mutual IP with anti-myc or anti-flag antibody (control IgG), 4°C overnight, Protein G Plus-Agarose; blots with anti-myc and anti-flag.

“myc-FTL (ferritin light chain) (from UniProt P02792 1-175)”: the binding result is recorded as “binds”.
